Experimental data as given in article doi:10.1101/2022.06.08.495335.
No constants are given. Whether binding was seen depends on the method and setting. Binding seen in cells or lysates may run through a third protein. Some binding calls cover weakened binding; strength is not graded here. Where a sequence is shown, tags or fusion partners need not be part of it.

Protein sequences, listed by entry. Tags and fused reporters are not part of them.
UniProt Q00610: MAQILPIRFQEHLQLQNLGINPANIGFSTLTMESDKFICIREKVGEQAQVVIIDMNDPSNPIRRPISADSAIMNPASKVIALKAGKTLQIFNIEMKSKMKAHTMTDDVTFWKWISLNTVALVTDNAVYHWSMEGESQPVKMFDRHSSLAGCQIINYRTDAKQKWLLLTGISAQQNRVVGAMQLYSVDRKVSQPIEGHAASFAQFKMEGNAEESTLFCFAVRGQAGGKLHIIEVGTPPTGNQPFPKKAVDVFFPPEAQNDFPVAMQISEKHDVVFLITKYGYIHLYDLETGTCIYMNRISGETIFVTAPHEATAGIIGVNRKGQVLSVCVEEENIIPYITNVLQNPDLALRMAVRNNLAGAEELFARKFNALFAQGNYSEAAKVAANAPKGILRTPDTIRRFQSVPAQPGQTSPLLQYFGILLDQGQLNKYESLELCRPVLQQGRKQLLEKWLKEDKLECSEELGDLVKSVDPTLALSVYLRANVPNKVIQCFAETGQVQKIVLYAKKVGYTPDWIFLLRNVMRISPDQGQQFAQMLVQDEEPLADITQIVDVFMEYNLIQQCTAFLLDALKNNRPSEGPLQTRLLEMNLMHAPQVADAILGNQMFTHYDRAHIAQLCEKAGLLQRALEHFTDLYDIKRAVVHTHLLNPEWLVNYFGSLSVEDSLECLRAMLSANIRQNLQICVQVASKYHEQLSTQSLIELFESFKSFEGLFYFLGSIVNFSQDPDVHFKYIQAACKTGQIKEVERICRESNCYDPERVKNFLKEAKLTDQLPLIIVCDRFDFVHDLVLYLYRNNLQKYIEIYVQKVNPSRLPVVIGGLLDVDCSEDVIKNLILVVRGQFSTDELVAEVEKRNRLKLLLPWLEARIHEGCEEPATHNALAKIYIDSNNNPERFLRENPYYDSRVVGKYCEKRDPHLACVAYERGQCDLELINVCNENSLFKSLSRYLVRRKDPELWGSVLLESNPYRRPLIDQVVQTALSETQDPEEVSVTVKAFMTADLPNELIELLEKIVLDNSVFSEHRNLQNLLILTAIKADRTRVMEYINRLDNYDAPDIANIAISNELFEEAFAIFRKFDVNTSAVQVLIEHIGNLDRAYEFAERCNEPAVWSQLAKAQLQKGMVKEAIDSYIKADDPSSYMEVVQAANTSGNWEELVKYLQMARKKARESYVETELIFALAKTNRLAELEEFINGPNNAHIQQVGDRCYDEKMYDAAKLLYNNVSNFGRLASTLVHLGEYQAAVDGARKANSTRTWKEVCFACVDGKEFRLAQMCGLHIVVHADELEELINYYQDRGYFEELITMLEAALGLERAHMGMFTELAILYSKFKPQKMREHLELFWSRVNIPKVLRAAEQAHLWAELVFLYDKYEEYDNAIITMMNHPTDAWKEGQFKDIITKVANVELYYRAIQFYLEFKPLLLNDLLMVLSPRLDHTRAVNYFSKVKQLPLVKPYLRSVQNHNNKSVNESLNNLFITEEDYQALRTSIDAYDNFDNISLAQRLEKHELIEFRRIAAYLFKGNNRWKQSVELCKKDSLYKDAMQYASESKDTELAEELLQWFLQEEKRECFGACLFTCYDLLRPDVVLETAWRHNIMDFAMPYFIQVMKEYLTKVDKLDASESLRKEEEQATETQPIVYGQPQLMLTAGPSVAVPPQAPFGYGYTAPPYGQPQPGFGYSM

Tests used:
[1] = biological target: T1, Venus-tagged mutant HURP (last 12 amino acids deleted) (human) (UniProt Q15398); test: co-IP
T1 sequence: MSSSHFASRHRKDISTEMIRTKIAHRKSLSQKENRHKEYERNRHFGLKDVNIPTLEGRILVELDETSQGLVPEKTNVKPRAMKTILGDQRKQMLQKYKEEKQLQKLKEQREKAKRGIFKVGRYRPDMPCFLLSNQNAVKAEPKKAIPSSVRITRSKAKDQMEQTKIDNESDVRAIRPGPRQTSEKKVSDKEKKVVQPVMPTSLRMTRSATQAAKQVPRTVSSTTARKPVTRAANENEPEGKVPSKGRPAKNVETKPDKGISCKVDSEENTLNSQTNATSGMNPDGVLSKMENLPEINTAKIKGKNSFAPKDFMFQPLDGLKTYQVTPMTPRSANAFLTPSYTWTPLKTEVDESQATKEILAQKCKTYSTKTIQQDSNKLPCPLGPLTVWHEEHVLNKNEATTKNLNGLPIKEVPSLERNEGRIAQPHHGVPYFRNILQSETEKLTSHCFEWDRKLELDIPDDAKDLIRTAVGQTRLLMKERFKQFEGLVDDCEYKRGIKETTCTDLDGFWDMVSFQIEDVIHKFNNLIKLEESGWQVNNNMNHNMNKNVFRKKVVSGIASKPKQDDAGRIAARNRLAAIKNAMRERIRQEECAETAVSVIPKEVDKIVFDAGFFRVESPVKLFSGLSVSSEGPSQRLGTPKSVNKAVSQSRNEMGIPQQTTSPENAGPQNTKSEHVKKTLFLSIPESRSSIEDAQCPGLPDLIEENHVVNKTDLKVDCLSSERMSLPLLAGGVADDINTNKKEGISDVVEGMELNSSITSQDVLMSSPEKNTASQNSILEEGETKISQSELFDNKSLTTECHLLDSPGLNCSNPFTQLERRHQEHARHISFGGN

[2] = biological target: T2, Venus-tagged wild-type HURP (human) (UniProt Q15398); test: co-IP
T2 sequence: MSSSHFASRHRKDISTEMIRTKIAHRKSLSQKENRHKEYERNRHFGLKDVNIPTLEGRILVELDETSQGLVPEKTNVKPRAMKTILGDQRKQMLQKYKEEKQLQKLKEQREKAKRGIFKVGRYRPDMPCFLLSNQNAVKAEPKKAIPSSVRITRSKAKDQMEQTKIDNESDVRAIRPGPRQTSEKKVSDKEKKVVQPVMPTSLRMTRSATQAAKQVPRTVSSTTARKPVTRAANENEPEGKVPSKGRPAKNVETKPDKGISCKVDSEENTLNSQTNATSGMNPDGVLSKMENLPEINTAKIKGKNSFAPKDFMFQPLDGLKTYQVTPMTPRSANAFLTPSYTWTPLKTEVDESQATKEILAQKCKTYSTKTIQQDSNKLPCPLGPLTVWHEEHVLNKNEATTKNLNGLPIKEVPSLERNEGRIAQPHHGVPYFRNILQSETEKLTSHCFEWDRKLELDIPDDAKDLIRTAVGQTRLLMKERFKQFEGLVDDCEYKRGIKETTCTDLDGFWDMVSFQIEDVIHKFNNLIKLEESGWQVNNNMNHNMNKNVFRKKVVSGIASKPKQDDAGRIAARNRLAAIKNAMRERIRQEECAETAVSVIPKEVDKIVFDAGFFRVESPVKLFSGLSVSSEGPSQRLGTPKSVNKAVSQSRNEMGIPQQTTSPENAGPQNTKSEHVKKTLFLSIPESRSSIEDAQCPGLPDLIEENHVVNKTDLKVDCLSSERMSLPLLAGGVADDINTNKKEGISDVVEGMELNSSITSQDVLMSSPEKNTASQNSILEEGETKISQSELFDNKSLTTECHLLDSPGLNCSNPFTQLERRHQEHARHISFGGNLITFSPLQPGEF

binding [1]: no binding | binding [2]: binds
Substance: clathrin (endogenous, detected with anti-CHC) (from UniProt Q00610 1-1675)
